# Some results come without the dose or concentration used.
# Test system: healthy adults
# Test: Experiment 1: stepwise linear discriminant analysis, treatment vs placebo
# Assay type: in vivo, human
# Conditions: post treatment
compound,measurement,value
"CCO [alcohol, ethanol]",EEG LDA Analysis: time of peak difference,2.5 to 3 h
